Reference: PubChem BioAssay AID1259284 (Sanger Institute, 2017)

Screen: 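siRNA screen across the kinome seeking partners for BYL719, cetuximab or trametinib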 (primary screen)
System: SW48 human colorectal cancer cells
Knock-down reagent: siRNA pool against human genes
Treatment: anchor drug BYL719 at 1 µM, cetuximab at 5 µg/ml or trametinib at 10 nM, or DMSO vehicle alone
Read-out: 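Cell viability relative to non-targeting pool wells, replicate mean, with robust z-scores and drug synergy scores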
Scale: robust z-score, no drug: higher = more cells survive knock-down
Rule for the call: 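Called essential when the robust z-score of viability without drug falls below -3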
Meaning of the calls: active = essential without drug; inactive = no change without drug
This is an unselected part of 794 reagents. Of all reagents, 16 (2%) were called active. 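Calls concern knock-down without drug only; drug synergy was judged apart, with scores above 0.15 taken as synergy.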 Entries without a mark were called inactive. Not all columns of the deposit are shown. The record does not give: the amount of reagent, the time to read-out.

For CPNE3, how do the results read?
robust z-score, no drug: 0.426

For PRKCD, what does the deposit list?
robust z-score, no drug: -2.98

What did the screen give for MYLK3?
robust z-score, no drug: 0.235

What is on record for LMTK2?
robust z-score, no drug: -0.501

What is on record for DCLK2?
robust z-score, no drug: 0.426

How did the screen score SGK1?
robust z-score, no drug: 0.426

What is on record for RIPK1?
robust z-score, no drug: -0.276

Which result is listed for SMAD2?
robust z-score, no drug: 0.426

With ELF3, what was measured?
robust z-score, no drug: -0.439

With PSTK, what was measured?
robust z-score, no drug: 0.426

What did the screen give for OXSR1?
robust z-score, no drug: -0.73

Entries above whose target name begins with S or s:
SGK1 — robust z-score, no drug: 0.426
SMAD2 — robust z-score, no drug: 0.426

More results:
What is on record for TESK2?
robust z-score, no drug: 0.426

Which result is listed for BUB1B?
robust z-score, no drug: -1.53

For FYN, what does the deposit list?
robust z-score, no drug: 0.0355

For PHKG1, what does the deposit list?
robust z-score, no drug: 0.426

What is on record for PAK4?
robust z-score, no drug: 0.426

What did the screen give for WNK1?
robust z-score, no drug: -0.244

What is on record for SIK1?
robust z-score, no drug: 0.426

With LATS1, what does the deposit list?
robust z-score, no drug: 0.426

For CKMT1B, what was measured?
robust z-score, no drug: 0.426

What did the screen give for CKS1B?
robust z-score, no drug: -1

For ULK2, how do the results read?
robust z-score, no drug: 0.426

For DYRK1A, how do the results read?
robust z-score, no drug: 0.426

What did the screen give for HUS1?
robust z-score, no drug: 0.426

What is on record for CIB2?
robust z-score, no drug: 0.426

With RFK, how do the results read?
robust z-score, no drug: 0.426

What did the screen give for GUCY2D?
robust z-score, no drug: -5.42 (active)

What is on record for PIM3?
robust z-score, no drug: 0.0209
